Test results reported in patent publication US10864251B2 (Wisconsin Alumni Research Foundation, priority 2006, dated 2020).
Where no end group is shown, it is not given here.

Assay: peptide made by a vendor
Conditions: whole synthesis

## SNTETAFTSVLPAGEKPEEGEPVLHVEAEPGFTARDKEKEVTTRPRETV
  final purity (method not given): 75%
